Data on two molecules can be found in article doi:10.1101/2022.08.18.504432.

Protein sequences, listed by entry. Tags and fused reporters are not part of them.
UniProt P84078: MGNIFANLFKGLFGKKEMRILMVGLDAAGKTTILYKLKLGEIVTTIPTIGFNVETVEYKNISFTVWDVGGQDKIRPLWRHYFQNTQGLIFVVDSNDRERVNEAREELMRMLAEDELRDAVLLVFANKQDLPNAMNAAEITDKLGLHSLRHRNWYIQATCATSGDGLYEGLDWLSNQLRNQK

For the assay, the target named is T1, GST-tagged GGA3 (Golgi-localized γ-ear containing Arf-binding protein 3) (UniProt Q9NZ52).
T1 sequence: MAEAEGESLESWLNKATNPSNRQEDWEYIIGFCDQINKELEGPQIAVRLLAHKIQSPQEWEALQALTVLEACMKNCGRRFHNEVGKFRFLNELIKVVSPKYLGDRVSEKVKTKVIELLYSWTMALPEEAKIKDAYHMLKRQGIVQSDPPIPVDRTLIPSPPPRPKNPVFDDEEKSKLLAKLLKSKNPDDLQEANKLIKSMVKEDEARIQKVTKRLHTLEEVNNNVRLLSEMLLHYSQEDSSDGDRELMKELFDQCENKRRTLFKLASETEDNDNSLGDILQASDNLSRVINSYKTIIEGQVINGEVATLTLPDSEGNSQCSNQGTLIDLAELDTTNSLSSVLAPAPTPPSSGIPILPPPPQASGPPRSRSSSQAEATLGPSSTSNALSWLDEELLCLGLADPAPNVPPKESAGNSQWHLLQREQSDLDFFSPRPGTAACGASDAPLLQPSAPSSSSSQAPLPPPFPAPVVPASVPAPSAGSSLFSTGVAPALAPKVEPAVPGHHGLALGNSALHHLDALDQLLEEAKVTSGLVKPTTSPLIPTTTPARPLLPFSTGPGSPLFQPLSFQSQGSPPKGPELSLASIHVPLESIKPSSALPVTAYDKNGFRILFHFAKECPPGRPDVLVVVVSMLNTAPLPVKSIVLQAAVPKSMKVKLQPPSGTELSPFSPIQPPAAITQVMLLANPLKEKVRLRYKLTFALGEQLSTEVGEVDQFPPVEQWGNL
Put plainly: pull-down.

Results are given in words; binding and its absence hold for the method and conditions named. Binding seen in cells or lysates may run through a third protein. Some entries that bind do so weakly or less than the wild type. Tags and fused reporters may be left off the sequences shown.

As for “Arf1 (endogenous, mouse embryonic fibroblasts) (from UniProt P84078 1-181)”, the binding result was “binds”.

B1: Arl15 (endogenous, mouse embryonic fibroblasts) (protein, UniProt Q8BGR6 1-204)
chain: MSDLRITEAFLYMDYLCFRALCCKGPPPARPEYDLVCIGLTGSGKTSLLSELCSESPENVVSTTGFSIKAVPFQNAVLNVKELGGADNIRKYWSRYYQGSQGVIFVLDSASSEDDLETARNELHSALQHPQLCTLPFLILANHQDKPAARSVQEIKKYFELEPLARGKRWILQPCSLDDVDTLKDSFSQLINLLEEKDHEAVRM
B1: the binding result is reported as “binds”.
